Test results reported in PMC11176775.
These are yes or no findings as the source states them, for the method shown. Some results given as binding are weak or reduced against the parent protein; the word gives no strength.

Amino acid sequences for entries named in this document (tags omitted).
UniProt P09874: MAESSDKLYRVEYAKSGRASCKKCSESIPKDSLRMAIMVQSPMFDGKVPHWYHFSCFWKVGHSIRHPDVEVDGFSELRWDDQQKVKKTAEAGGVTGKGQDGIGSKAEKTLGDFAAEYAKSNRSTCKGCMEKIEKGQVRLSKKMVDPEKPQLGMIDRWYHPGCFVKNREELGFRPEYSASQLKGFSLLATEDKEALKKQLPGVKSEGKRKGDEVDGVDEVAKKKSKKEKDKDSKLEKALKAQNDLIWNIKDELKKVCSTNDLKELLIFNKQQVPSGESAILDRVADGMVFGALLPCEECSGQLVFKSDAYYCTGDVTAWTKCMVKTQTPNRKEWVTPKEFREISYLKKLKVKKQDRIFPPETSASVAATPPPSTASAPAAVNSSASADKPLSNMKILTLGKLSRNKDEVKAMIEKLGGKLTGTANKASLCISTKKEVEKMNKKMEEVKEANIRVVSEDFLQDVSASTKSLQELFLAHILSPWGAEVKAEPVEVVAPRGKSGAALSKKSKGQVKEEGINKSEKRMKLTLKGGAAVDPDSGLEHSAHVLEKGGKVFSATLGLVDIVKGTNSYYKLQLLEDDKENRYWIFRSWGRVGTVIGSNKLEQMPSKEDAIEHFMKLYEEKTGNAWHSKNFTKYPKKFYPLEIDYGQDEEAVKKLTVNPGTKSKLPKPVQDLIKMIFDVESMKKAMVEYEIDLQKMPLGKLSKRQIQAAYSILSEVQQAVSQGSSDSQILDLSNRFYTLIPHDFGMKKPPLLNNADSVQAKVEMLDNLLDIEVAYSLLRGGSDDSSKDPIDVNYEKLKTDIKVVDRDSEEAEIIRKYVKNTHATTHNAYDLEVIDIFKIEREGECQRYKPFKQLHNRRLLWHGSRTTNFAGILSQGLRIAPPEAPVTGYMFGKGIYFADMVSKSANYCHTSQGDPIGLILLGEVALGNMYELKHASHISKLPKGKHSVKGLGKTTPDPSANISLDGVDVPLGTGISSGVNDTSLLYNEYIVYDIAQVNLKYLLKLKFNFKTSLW
UniProt P27695: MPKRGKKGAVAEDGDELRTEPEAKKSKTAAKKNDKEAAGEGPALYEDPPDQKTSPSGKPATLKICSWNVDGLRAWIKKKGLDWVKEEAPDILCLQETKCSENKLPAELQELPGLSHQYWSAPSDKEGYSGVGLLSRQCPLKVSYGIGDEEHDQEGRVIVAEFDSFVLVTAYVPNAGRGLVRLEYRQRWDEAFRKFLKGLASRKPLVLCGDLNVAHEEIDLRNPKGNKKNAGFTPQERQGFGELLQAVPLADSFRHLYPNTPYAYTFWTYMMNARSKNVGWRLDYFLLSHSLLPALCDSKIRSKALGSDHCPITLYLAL

Tests used:
[1] = biological target: poly (ADP-ribose) polymerase 1 (UniProt P09874); experiment: SPR; Biacore X-100, 25 °C, CM5 chip; polβ and the ligases with XRCC1 and PARP1 (Fig. S3); 10 mM Hepes pH 7.4, 150 mM NaCl, 3 mM EDTA, 0.005% P20; both purified
[2] = biological target: GST-tag APE1 full-length (apurinic/apyrimidinic-endonuclease 1) (UniProt P27695); experiment: SPR; GST-tag polβ or APE1 immobilised on CM5 chip (EDC/NHS), his-tag LIG1 or LIGIIIα passed as analyte; Biacore X-100, 25 °C; 10 mM Hepes pH 7.4, 150 mM NaCl, 3 mM EDTA, 0.005% surfactant P20; 1:1 (Langmuir) fit; both purified
[3] = biological target: Apurinic/apyrimidinic-endonuclease 1 (UniProt P27695); experiment: SPR; Biacore X-100, 25 °C; GST-tag polβ or APE1 immobilised on CM5 chip (EDC/NHS, 10 mM sodium acetate pH 4.0), his-tag LIG1 or LIGIIIα proteins as analytes; 10 mM Hepes pH 7.4, 150 mM NaCl, 3 mM EDTA, 0.005% P20; 1:1 (Langmuir) model; polβ truncated mutants (Fig. S2) tested likewise, orientation not given; both purified

binding [3]	Substance	further results
–	DNA ligase 1 full-length (1–919 amino acids) (from UniProt P18858 1-919) (enzyme)	binding [1]: binds
–	LIG1△N-terminal (262–919 amino acids), C-terminal catalytic region of LIG1 (from UniProt P18858 262-919) (domain or fragment)	binding [2]: no binding
binds	LIG1▵C-terminal (1–262 amino acids) (from UniProt P18858 1-262) (domain or fragment)	–
no binding	LIG1▵N-terminal (262–919 amino acids) (from UniProt P18858 262-919) (domain or fragment)	–
